Measurements from PMC2999606.
No constants are given. Whether binding was seen depends on the method and setting. Binding seen in cells or lysates may run through a third protein. Binding can be weak; no strength is given. Sequences can lack the tags named with a protein.

Biological target: T1, Flag-tagged chicken p53 (chicken) (UniProt P10360)
T1 sequence: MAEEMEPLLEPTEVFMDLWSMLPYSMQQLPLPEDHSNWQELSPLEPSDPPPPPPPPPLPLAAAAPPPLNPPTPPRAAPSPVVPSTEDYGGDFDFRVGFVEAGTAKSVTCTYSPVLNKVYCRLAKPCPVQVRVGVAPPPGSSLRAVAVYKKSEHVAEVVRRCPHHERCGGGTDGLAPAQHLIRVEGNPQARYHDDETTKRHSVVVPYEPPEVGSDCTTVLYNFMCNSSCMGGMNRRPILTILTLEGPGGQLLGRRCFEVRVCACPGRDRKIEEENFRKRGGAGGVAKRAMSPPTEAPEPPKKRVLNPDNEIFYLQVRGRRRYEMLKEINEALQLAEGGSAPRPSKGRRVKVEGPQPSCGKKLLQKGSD
Assay: co-IP; CEF cells co-transfected, 24 h; lysates immunoprecipitated with anti-Flag antibodies, immunoblotted with anti-GFP antibodies

In the case of “GFP-tagged Meq (Marek's disease virus (MDV), strain RB1B)”, the binding is reported as “binds”.
